Data: patent publication US20230330033A1
These are yes or no findings as the source states them, for the method shown. Some results given as binding are weak or reduced against the parent protein; the word gives no strength.

Columns and labels:
[1] = biological target: sfGFP Fc-fusion (human) [IgG part: P01857]; experiment: cage formation verified by SEC at minimum
[2] = biological target: mRuby2 Fc-fusion (human) [IgG part: P01857]; experiment: cage formation verified by SEC at minimum
[3] = biological target: human IgG1 Fc (human) [IgG part: P01857]; experiment: size exclusion chromatography of the design mixed with human IgG1 Fc, overlaid on the single components (UV 230, normalized)
[4] = biological target: human IgG1 Fc (human) [IgG part: P01857]; experiment: SEC after mixing with human IgG1 Fc
[5] = biological target: human IgG1 Fc (human) [IgG part: P01857]; experiment: negative-stain EM 3D reconstruction of the Fc AbC

Measured: binding

B1: i52.3 (designed binder)
chain: MSDEEERNELIKRIREAAQRAREAAERTGDPRVRELARELARLAQRAFYLVLHDPSSSDVNEALKLIVEAIEAAVRALEAAERAGDPELREDAREAVRLAVEAAEEVQRNPSSSTANLLLKAIVALAEALAAAANGDKEKFKKAAESALEIAKRVVEVASKEGDPEAVLEAAKVALRVAELAAKNGDKEVFKKAAESALEVAKRLVEVASKEGDPELVLEAAKVALRVAELAAKNGDKEVFQKAAASAVEVALRLTEVASKEGDSELETEAAKVITRVRELASKQGDAAVAILAETAEVKLEIEESKKRPQSESAKNLILIMQLLINQIRLLVLQIRMLDEQRQEGSLEHHHHHH
binds: [1] | [2]

B2: d2.4 (designed binder)
chain: MSDEEERNELIKRIREAAQRAREAAERTGDPRVRELARELARIAQIAFYLVLHDPSSSEVNEALKAVVKAIELAVRALEAAEKTGDPRVRELAREVVKAAVDVAEAAQAGLNDKLREVAEKALRLAKEALKEGDSTAAELAAEIARLAAKLAGDEDVLKKVKLVLEAIKLVKIVVENAKRKGDDSKEAAEAAVAAFLIVLAAAKLAGIASEEVLELAARLIKEVVENAQREGYDIAVAAIAAAVAFAVVAVAAAAADITSSEVLELAIRLIKEVVENAQREGYVILLAALAAAAAFVVVAAAAKRAGITSSETLKRAIEEIRKRVEEAQREGNDISEAARQAAEEFRKKAEELKGSLEHHHHHH
binds: [3] | [1] | [2] | [4] | [5]
